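Genome-wide siRNA knockdown in TC32 Ewing sarcoma cells, comparing luciferase light from an NR0B1-promoter reporter with a CMV-promoter reporter 48 hours after transfection.
Each siRNA was applied at 20 nM.
A z-score of the log NR0B1-over-CMV signal, less the median of siRNAs with the same seed; more negative means a stronger specific loss of the NR0B1 reporter.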

The strongest results of the screen are mostly left out here.
Sequences are the guide (antisense) strand, without overhang.

siRNA	target gene	seed-corrected z-score
AAGUGAAUCGAUCCAGACC	CACNG6	0.6784
UAAAUAAACAGACUCCCUG	SAMD10	0.04896
UUUGUGGAAAGGCCUGUGC	CLEC19A	-0.1144
UAUCUGUCUCAGAUGUUAC	AKT3	-0.4491
UGGAUUCCCAUAACUAACG	FGFR1OP2	1.485
ACUUCUAUAAGAUUGUAGG	KLHL9	0.6906
UUCUGGGUAAGUUUUCGUG	DGUOK	0.9948
AUAUGAUCCAGUCGAAAUG	CLK1	0.2634
UUGCUUCUCAGUUAGCUUG	AHCY	-0.2127
UUCUGUUGCUUUGAGAGCC	SH3YL1	0.03638
AUGACAGUGAACACCUUCC	ARRDC2	0.051
UAAAAUAUUUCCAUUACCC	FAM74A3	0.256
UUAGUUCCCAGCACACGGU	ELP6	0.6032
UCUGGAUUGUGGACCCUCU	ST20-AS1	0.6464
AUACUUGAACCUGUACUCC	UPK3A	0.3875
UUUGUGGACAUACGCAUGC	BOD1L1	-0.2374
UAGCGGUUGUGCACCAUGG	CEP131	-0.1582
UGGGUAAUACUUGAUAACC	TRAPPC12	-0.4363
UUAGUUCAUCAUAACAUUC	ZNF430	-0.07523
UUUCUAUCAGCAAUCAGUC	DOCK1	0.362
AGAUUUCCUACGUAUGCUG	EIF4H	-0.2228
UGUUUGCUCAGGUGGUCGC	SP7	-1.82
UUUCGGUACUGGGAAUUGC	CHODL	0.4083
UUUCAAACAGGUGAUCCGG	PSMB3	0.788
AGUAUAAUCAUCGGGAUUC	VCPIP1	0.7906
UGAGUACCGAGGACAAAGC	NLRP3	1.523
AAACUCCACGUGUGACUCC	HMCN2	1.052
UCAGAAACAAUGUCCAUAG	LOC728470	-0.2071
UCUGGCUUCCGGAUGAUGC	SPDEF	0.6454
UUUUCGUGCAUGAACACCU	DCAF4	1.401
ACAGAUACCAGAUAGCCCU	SNRPF	-1.181
UAUGUGGUGUAGGACAUCU	REXO1	-0.7108
AAUCAUACAACCAAGAGAC	PSMA6P2	1.17
UAGAUGUCCUCGAUGUUCC	ARHGEF4	1.441
UCAUAGUCCACUAGCUUCC	AMPH	-1.232
UUUAUCACGACCUUUGACC	CEP85	-0.1426
UGUUGUUGAAGCAUGAGCC	DMC1	0.3488
AGGGUUGUCUCAUUGAAGC	IP6K2	0.136
UCAUCCAAAGGUUCAGAGC	CAMK2N2	0.2386
AUGUUUUUGAUGAAGGUCU	MYC	-1.114
UUGACUACUGCAAAAUUGC	DCLK2	0.698
UUAUGUCGGAGUAAGACUC	ANKRD13A	-0.176
UUCGAGUCAAGCUUGGUGG	ANKRD35	0.5668
UUUGAGAACAAUUGCUUCC	ZBED5-AS1	0.3189
UGACCUUGAAUCGUGAAUC	UBE3D	-0.702
UAGGAUAUAGUUGCGUUUC	HNRNPUL1	0.3267
UUCAUAUUCAUAUCGUCCC	PPHLN1	0.07344
UUUACCACUUCUGCUGUCU	ZNF815P	-0.2625
UGUCGAAAGAGGACCGUCU	SLC25A51P1	0.4125
UUCAUAAUCUAGUAACUGG	KHDC3L	0.2469
UGAAGGGAAAGGAUUGAGC	PROM2	-0.9229
UUCUGGUAGAGGAUCUUCC	LATS2	3.833
AUUUUUAUCCUCAUAAGCC	GLO1	0.1975
UGUUGACUCAUUUCCAGAC	LRCH4	1.219
UUGUUCAUAGCACCUAUGC	OR52B6	0.3628
AAAGUUGCAAACAUUAUUG	COL4A5	-0.6183
UCUGAUCCAGUUCCCAUGC	PIGG	-0.7902
UUGUAUUCCAGGAGUAUCA	CNTF	-0.2819
UGUUCUGUAACAACUUGGG	OR1E1	0.01202
AUUUUGGUAAGUUGUAUCU	LOC647070	0.7505
UUUGUGACCGCUCUUCUAU	FAM19A4	-1.129
UUAGUUGUGACCGAGUUUU	KRTAP17-1	-1.852

6 of the entries, repeated:

siRNA	target gene	seed-corrected z-score
UUUCGGUACUGGGAAUUGC	CHODL	0.4083
UGGGUAAUACUUGAUAACC	TRAPPC12	-0.4363
UUGCUUCUCAGUUAGCUUG	AHCY	-0.2127
UGUCGAAAGAGGACCGUCU	SLC25A51P1	0.4125
UCUGAUCCAGUUCCCAUGC	PIGG	-0.7902
UUCUGGUAGAGGAUCUUCC	LATS2	3.833

The results are deposited in PubChem (AID1159506; NCATS, 2015).